According to article PMC11701112:
These are yes or no findings as the source states them, for the method shown. In cells and extracts the contact can be indirect. Some binding calls cover weakened binding; strength is not graded here.

Chains of the proteins cited; added tags and fusions are not shown.
UniProt Q9Y2T6: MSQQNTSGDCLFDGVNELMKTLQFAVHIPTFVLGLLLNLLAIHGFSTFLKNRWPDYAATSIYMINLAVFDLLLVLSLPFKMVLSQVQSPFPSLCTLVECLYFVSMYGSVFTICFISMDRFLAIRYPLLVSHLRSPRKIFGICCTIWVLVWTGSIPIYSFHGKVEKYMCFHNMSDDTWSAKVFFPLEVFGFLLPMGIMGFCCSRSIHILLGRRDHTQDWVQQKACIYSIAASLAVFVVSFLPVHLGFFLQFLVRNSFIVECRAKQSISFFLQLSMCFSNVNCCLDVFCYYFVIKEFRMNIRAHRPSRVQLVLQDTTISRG
UniProt P49407: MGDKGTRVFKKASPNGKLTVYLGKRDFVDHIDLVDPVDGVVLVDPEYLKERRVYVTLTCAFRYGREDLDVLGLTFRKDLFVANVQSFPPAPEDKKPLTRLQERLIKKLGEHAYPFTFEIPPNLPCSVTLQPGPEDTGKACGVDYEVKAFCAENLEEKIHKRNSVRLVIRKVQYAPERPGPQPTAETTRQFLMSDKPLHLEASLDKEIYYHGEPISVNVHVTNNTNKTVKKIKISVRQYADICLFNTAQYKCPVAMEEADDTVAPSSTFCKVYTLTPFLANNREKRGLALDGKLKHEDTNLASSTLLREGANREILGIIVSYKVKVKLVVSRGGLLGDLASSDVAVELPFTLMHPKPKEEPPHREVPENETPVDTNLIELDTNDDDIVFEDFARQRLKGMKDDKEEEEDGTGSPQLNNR

Tests used:
[1] = molecular target: GPR55 (wild type, in the cell-based NanoBiT and BRET assays) (UniProt Q9Y2T6); assay: split reporter; NanoBiT recruitment assay of β-arrestin 1 to GPR55, with LPI
[2] = molecular target: GPR55 (wild type, in the cell-based NanoBiT and BRET assays) (UniProt Q9Y2T6); assay: condition: only with the ligands other than LPI (cells without the activating ligand LPI); split reporter; NanoBiT recruitment assay of β-arrestin 1 to GPR55, with the ligands other than LPI

β-arrestin 1 (from UniProt P49407 1-418)
binding [1]: binds | binding [2]: no binding
